# Values from PubChem BioAssay AID1259289 (Sanger Institute, 2017).
# Assay: 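Kinases that bowel cancer cells need to survive, with or without BYL719, cetuximab, trametinib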 (primary screen)
# Cells: human LS513 colorectal cancer cells
# Reagent: siRNA pool against human genes
# Treatment: anchor drug BYL719 at 1 µM, cetuximab at 5 µg/ml or trametinib at 10 nM, or DMSO vehicle alone; exposure time not given
# Measured: 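Cell survival as a fraction of the non-targeting pool, replicate means; robust z-score for silencing alone under DMSO; synergy score for each of BYL719, cetuximab and trametinib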
# Direction: robust z-score, siRNA alone (DMSO): higher = more viable cells; strongly negative means essential; viability with DMSO vs control: higher = more viable cells
# Hit rule: 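a gene counts as active if its DMSO-only robust z-score falls under -3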
# Meaning of the calls: active = essential (knock-down alone); inactive = not essential
# Shown is one part, drawn at random, of 794 reagents. 16 of all reagents (2%) were called active. 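Active marks cell loss from silencing alone; drug synergy shows only in the synergy scores, not the calls.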 A number with no mark means an inactive call. Viability is capped at 1. Further read-outs or replicates are left out here. Not given: the amount of reagent, the time to read-out.
The opening 6 entries, ahead of the listing:
gene,"robust z-score, siRNA alone (DMSO)",viability with DMSO vs control (fraction of control)
ACVRL1 (GeneID 94),0.561,1
SIK2 (GeneID 23235),-0.543,0.843
CKM (GeneID 1158),0.561,1
EIF2AK2 (GeneID 5610),0.561,1
UHMK1 (GeneID 127933),0.561,1
TESK2 (GeneID 10420),0.561,1

Results, repeating the preview:
gene,"robust z-score, siRNA alone (DMSO)",viability with DMSO vs control (fraction of control)
ACVRL1 (GeneID 94),0.561,1
SIK2 (GeneID 23235),-0.543,0.843
CKM (GeneID 1158),0.561,1
EIF2AK2 (GeneID 5610),0.561,1
UHMK1 (GeneID 127933),0.561,1
TESK2 (GeneID 10420),0.561,1
TWF2 (GeneID 11344),0.561,1
N4BP2 (GeneID 55728),0.561,1
JAK1 (GeneID 3716),0.561,1
EXOSC10 (GeneID 5394),0.115,0.937
OXSR1 (GeneID 9943),0.561,1
NUP62 (GeneID 23636),0.561,1
MAP4K1 (GeneID 11184),-1.15,0.757
MAPKAPK2 (GeneID 9261),0.052,0.928
IP6K3 (GeneID 117283),-2.74,0.531
CSK (GeneID 1445),0.561,1
MAPK11 (GeneID 5600),0.561,1
PPP2R1A (GeneID 5518),0.561,1
MAP4K2 (GeneID 5871),0.0193,0.923
ALPK1 (GeneID 80216),-1.86,0.656
TK2 (GeneID 7084),0.561,1
UCK1 (GeneID 83549),0.561,1
AK2 (GeneID 204),0.561,1
MAP2K2 (GeneID 5605),0.561,1
GOLGA5 (GeneID 9950),0.561,1
HK1 (GeneID 3098),0.561,1
ACO1 (GeneID 48),-0.385,0.866
PRKCA (GeneID 5578),0.561,1
PDGFRL (GeneID 5157),0.561,1
SGK1 (GeneID 6446),0.561,1
CSNK1A1L (GeneID 122011),0.561,1
EIF2AK1 (GeneID 27102),-0.17,0.896
AURKA (GeneID 6790),-1.93,0.646
ACVR1C (GeneID 130399),0.561,1
WT1 (GeneID 7490),0.561,1
DSTYK (GeneID 25778),0.561,1
RIPK4 (GeneID 54101),-0.0238,0.917
SLK (GeneID 9748),0.561,1
CHD9 (GeneID 80205),0.561,1
ITPKC (GeneID 80271),0.191,0.947
IGF2R (GeneID 3482),0.561,1
FOXP1 (GeneID 27086),-2.54,0.561
PIK3CB (GeneID 5291),0.205,0.949
NTRK3 (GeneID 4916),0.561,1
PIK3C3 (GeneID 5289),0.561,1
WIPF1 (GeneID 7456),-0.537,0.844
PMVK (GeneID 10654),0.000103,0.92
MYLK3 (GeneID 91807),0.561,1
NIM1K (GeneID 167359),0.561,1
STK16 (GeneID 8576),0.561,1
